Experimental data from PubChem BioAssay AID463183 (Sanford-Burnham Center for Chemical Genomics, 2010).
The other results are listed elsewhere or left out. Shown are side measurements of this screen, not its main read-out; they come without a call. Compounds called inactive in the main read-out are mostly missing here.

Assay: blockers of oleate-driven lipid droplets in liver cells – imaging, AML12 mouse hepatocytes, single concentration, high-content, confirmation (AID 463183);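 further: cells counted after overnight compound exposure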
Conditions: BODIPY lipid droplet imaging, measured here: cell count, cytotoxicity, at 5.2 µM, droplets induced with 100 µM oleic acid
Compound `COc1ccc(C2CC(c3cccs3)=NN2C(=O)CSc2nc3ccccc3s2)cc1` (configuration not stated) has a cell count of 1600 cells. Work on `CN(C)Cc1ccc(O)c(CCc2ccccc2)n1` yielded a cell count of 1600 cells. For `CC(C)c1ccccc1-n1c(SCC(=O)c2ccc3c(c2)NC(=O)CO3)nc2ccccc2c1=O`, the cell count was 1590 cells. Work on `CCOc1ccc(CCNC(=O)c2cc3sc(Cl)cc3n2C)cc1OCC` yielded a cell count of 1550 cells. For `O=C(c1nn2c(C(F)(F)F)cc(-c3cccs3)nc2c1Cl)N1CCCc2ccccc21`, the cell count was 1500 cells. `Cc1ccccc1N1CCN(C(=S)c2ccc(-c3ccc([N+](=O)[O-])cc3)o2)CC1` showed a cell count of 1600 cells. With `CCOc1ccc(CCNC(=O)CSc2cc(=O)n(C)c3cc(Cl)ccc23)cc1OCC` the cell count was 1550 cells. With `COC(=O)[C@H](Cc1c[nH]c2ccccc12)NC(=O)CCCc1c[nH]c2ccccc12` the cell count was 1590 cells. For `COc1ccc(-c2csc(NC(=O)c3ccc(OCC(=O)N4CCOCC4)c(OC)c3)n2)cc1OC`, the cell count was 1560 cells. `Nc1nc(-c2ccccc2)c(N=Nc2ccccc2Cl)s1` showed a cell count of 1590 cells. In the case of `Cc1[nH]c2ccccc2c1/C=N/Nc1nc(Nc2ccc(F)cc2)nc(N2CCOCC2)n1`, the cell count is reported as 21 cells. With `Cc1nn(Cc2ccc(F)cc2)c(C)c1NC(=O)C1c2ccccc2Oc2ccccc21` the cell count was 1550 cells. Compound `CCCC(=O)Nc1cccc(C(=O)Nc2ccccc2OCC)c1` has a cell count of 1650 cells. With `Cc1ccc(CN2CCN(c3ccccc3)CC2)o1` the cell count was 1620 cells. With `O=C(CN(CC1CCCO1)S(=O)(=O)c1ccc(S(=O)(=O)NC2CC2)cc1)Nc1ccccc1` (configuration not stated) the cell count was 1590 cells. In the case of `CCCn1nc2cc(C(=O)NCc3ccc(OC(F)(F)F)cc3)ccc2c1OCC`, the cell count is reported as 1590 cells. With `CCOc1ccc(C(C)NC(=O)Cc2ccccc2)cc1OCC` (configuration not stated) the cell count was 1670 cells. Compound `FC(F)(F)c1ccc(Cl)c(NC(=S)N/N=C/c2ccccc2C(F)(F)F)c1` has a cell count of 1680 cells. Compound `CCOc1ccc(C(=O)OCC(=O)Nc2cc(C)on2)cc1OCC` has a cell count of 1640 cells. In the case of `Cc1cc(C(=O)OC(C)C(=O)Nc2nc(-c3ccccc3)cs2)c(C)o1` (configuration not stated), the cell count is reported as 1690 cells. For `COc1ccc(N=C2C(=Nc3ccc(OC)cc3)N(c3ccc(N(C)C)cc3)C(=S)N2c2ccc(OC)cc2)cc1`, the cell count was 1680 cells. Compound `O=C1C(NS(=O)(=O)c2cccs2)=C(N2CCN(c3cccc(Cl)c3)CC2)C(=O)c2ccccc21` has a cell count of 1520 cells.
